Reference: publication PMC7819943, “Rice protein-binding microarrays: a tool to detect cis-acting elements near promoter regions in rice”
Some of the results follow.

Protein sequences, listed by entry. Tags and fused reporters are not part of them.
UniProt Q0JBA9, entry or part of it: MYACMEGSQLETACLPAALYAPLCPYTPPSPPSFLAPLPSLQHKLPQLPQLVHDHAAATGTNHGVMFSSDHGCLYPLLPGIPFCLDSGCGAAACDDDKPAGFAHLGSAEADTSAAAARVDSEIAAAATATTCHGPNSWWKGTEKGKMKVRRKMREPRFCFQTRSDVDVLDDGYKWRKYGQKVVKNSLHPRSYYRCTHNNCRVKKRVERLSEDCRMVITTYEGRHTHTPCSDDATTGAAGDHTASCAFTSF

Molecular target: OsWRKY34 (Oryza sativa, UniProt Q0JBA9 1-250)
Experiment: protein-binding microarray (RPBM); PBS, 2% BSA, 51.3 ng/ul salmon testes DNA, 50 uM zinc acetate, 200 nM TF, 25 C, 1 h; high values mean tight binding
Conditions: protein: recombinant; tags: N-terminal polyhistidine and DsRed monomer fusion (pET32a); label: CyDye5-dUTP incorporated in the synthesized complementary strand; 3' TTTTT single-stranded linker to array surface; dsDNA, one strand shown
How it was run: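 Transcription factors were made in E. coli BL21-CodonPlus as N-terminal fusions to a polyhistidine tag and DsRed, then purified on Ni–NTA. After primer extension with Cy5-dUTP and blocking with 2% BSA, a custom Agilent array was exposed for 1 h at 25 °C to 200 nM protein in PBS, 2% BSA, salmon testes DNA and 50 µM zinc acetate. Washed arrays were scanned on an Axon 4000B, and the binding signal is per-feature fluorescence intensity in arbitrary units.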

Point of comparison: “TTTAACACGCCAGTCGCCGCGCAATATATTACCATTAATTCGGAGTCACCTAGTGCAG”, binding signal 8050 fluorescence intensity (a.u.). Against it:
- AGACTTGAATTTCCTATAGCAATCGATTATTTCTTCTCACCGGAGTCACCTAGTGCAG — higher, 8140 fluorescence intensity (a.u.)
- TATGGGTGGTTTCGCTAACGTGGCAGGGGAGGGCGGCGACCGGAGTCACCTAGTGCAG — higher, 13200 fluorescence intensity (a.u.)
- CATACTAGGTCCCTTATTTTTACATCGGATTACAAAGTCACGGAGTCACCTAGTGCAG — higher, 10500 fluorescence intensity (a.u.)
- GATTAGTGGGCCCATTTATAGGTAATGACATGTATGTTTTCGGAGTCACCTAGTGCAG — higher, 8320 fluorescence intensity (a.u.)
- TACTTACTGCTTCAACGGATGGCAGTATATTGCATTCTTTCGGAGTCACCTAGTGCAG — higher, 8590 fluorescence intensity (a.u.)
- GGTTGATACTGTTGTGGAGTAGTGTAGTGGTAGCGAGCTCCGGAGTCACCTAGTGCAG — lower, 8030 fluorescence intensity (a.u.)
- TCATGCGCATGTTTTCCGCACTATTAACCGTTGTAATTTTCGGAGTCACCTAGTGCAG — higher, 8250 fluorescence intensity (a.u.)
- TCTTGGTTCTGAATTTCAGTTCTCTCTTTTCCTCTGCATCCGGAGTCACCTAGTGCAG — higher, 8260 fluorescence intensity (a.u.)
- TATTCAGATTGTGGTTCATGTGGCAAGCACGTACGTACACCGGAGTCACCTAGTGCAG — higher, 9650 fluorescence intensity (a.u.)
- CTGCTAGAAATTTCGTTTCTTCAGATAGCTCATCATTTTTCGGAGTCACCTAGTGCAG — higher, 8260 fluorescence intensity (a.u.)
- GTACTCTCTTTGTTTCATATTATAAGTCATTTGACTTTTTCGGAGTCACCTAGTGCAG — higher, 11600 fluorescence intensity (a.u.)
- TCGTCTCCACTCCTCCGTTGCCATCCTCGTCGTCGTCCTCCGGAGTCACCTAGTGCAG — higher, 9270 fluorescence intensity (a.u.)
- ATTAAGCATGTGTTGGTGGGTTGAATGTTGATGCCGCTGGCGGAGTCACCTAGTGCAG — higher, 8380 fluorescence intensity (a.u.)
- GCTTTTTATCTCTCTCTCTCTCCTGGGACGCGTGCCCCTCCGGAGTCACCTAGTGCAG — higher, 9360 fluorescence intensity (a.u.)
- TCACCATATTGTCATCCTTTCTTTTTCATAAGTAGACAACCGGAGTCACCTAGTGCAG — higher, 8250 fluorescence intensity (a.u.)
- CCACCCAAACACCACGACCTCCTTCCACCGTCGCCTTCTTCGGAGTCACCTAGTGCAG — higher, 9420 fluorescence intensity (a.u.)
- GTAGAAGTCTGTATCGTCATGCGTCAACATATCATGATATCGGAGTCACCTAGTGCAG — lower, 8040 fluorescence intensity (a.u.)
- GCCCAAAAAACCCACCACTCCATCGCGCGAACCGCCCCAACGGAGTCACCTAGTGCAG — higher, 9240 fluorescence intensity (a.u.)
- GACGTGTATACTCTTGTTACGATATGCGTGTTTTTATTAGCGGAGTCACCTAGTGCAG — higher, 8900 fluorescence intensity (a.u.)
- GGGTTGCAGGTTCACTGTGTCTAGCTACTGGAATTGGGGACGGAGTCACCTAGTGCAG — higher, 9910 fluorescence intensity (a.u.)
- AGCTACCTGATACTACCTGATATACCTTCCTTCCTCGTCTCGGAGTCACCTAGTGCAG — higher, 8730 fluorescence intensity (a.u.)
- AAACCGCCTTACATCGGCGTCTCAGCTCCACCGTTTCATTCGGAGTCACCTAGTGCAG — higher, 10300 fluorescence intensity (a.u.)
- CAACCACCGCGCACTCACACACACTCTCCGACGATATTTTCGGAGTCACCTAGTGCAG — higher, 8980 fluorescence intensity (a.u.)
- ATCATGAAGCCTTGTTGGACGGTCATCTTGTTTCTCTCATCGGAGTCACCTAGTGCAG — higher, 10200 fluorescence intensity (a.u.)
- TGTGTGCCCACCCTGCTGCCAACATGCTTCTTGTTTAAATCGGAGTCACCTAGTGCAG — higher, 10500 fluorescence intensity (a.u.)
- ACACTGTATTTAAATAGCATCTATACTTCCATCTAGTTCACGGAGTCACCTAGTGCAG — higher, 8400 fluorescence intensity (a.u.)
- CACCTACTTTCACTTATTATCCAATCACAACATTCTTCCACGGAGTCACCTAGTGCAG — higher, 10700 fluorescence intensity (a.u.)
- GCCCGCGGTTATGGGCGGGTCTAACAATGTCTTTCGTGATCGGAGTCACCTAGTGCAG — higher, 9280 fluorescence intensity (a.u.)
- AGAAACAGCGCCACCCCGATCTCCTACCTCTACCGCTGCTCGGAGTCACCTAGTGCAG — higher, 9820 fluorescence intensity (a.u.)
- TACCTCATCGGCGATCGGCCTTGCCCGCCTTGTCCAACCTCGGAGTCACCTAGTGCAG — lower, 8040 fluorescence intensity (a.u.)
- GTCAATGCCCCGCTTGTTCCATGCATGCATCTCCAGCTGCCGGAGTCACCTAGTGCAG — higher, 8170 fluorescence intensity (a.u.)
- GCTGCTGCCGTCTTGTTGGTCGCCTCTGCAACTTCTCTTGCGGAGTCACCTAGTGCAG — higher, 8290 fluorescence intensity (a.u.)
- TTCCTTTTCTTTCCTCCGTTGATTGCGTGTGCCTGCCGGTCGGAGTCACCTAGTGCAG — higher, 12100 fluorescence intensity (a.u.)
- AATTCTCATGTCTCCGCTAACTGAATTTCCTTGTATATTTCGGAGTCACCTAGTGCAG — higher, 8760 fluorescence intensity (a.u.)
- GTGGGTCGCATGCGTTTGTACGGTGTTTCTTAAAAAAAATCGGAGTCACCTAGTGCAG — higher, 9540 fluorescence intensity (a.u.)
- ACTCTATCTTCTCAACTTGTACGTCCTCTCTCGTTTTCTACGGAGTCACCTAGTGCAG — higher, 10800 fluorescence intensity (a.u.)
- AGGTTGTGTTGGTCTCAGCTGCGTGGCGGACTCGTTGGGACGGAGTCACCTAGTGCAG — higher, 9150 fluorescence intensity (a.u.)
- TAATATTGCTTTCATCTGTACCATCGATCTTTTGCTCCATCGGAGTCACCTAGTGCAG — higher, 13500 fluorescence intensity (a.u.)
- AACTCATGGCTGCGCTTATTTTCGGACGGGTCATTGGGGTCGGAGTCACCTAGTGCAG — higher, 9340 fluorescence intensity (a.u.)
- GGCCGCCTCGCCTGTTCTTGCTGTGGTTGGTTCTTGGGATCGGAGTCACCTAGTGCAG — higher, 12700 fluorescence intensity (a.u.)
- CGCCGCCGCTATTTTCGTGTTTTTTGATTTCACGGTGCGCCGGAGTCACCTAGTGCAG — higher, 9340 fluorescence intensity (a.u.)
